Measurements reported in PubChem BioAssay AID1224828 (NIAID, 2016).
In all, the deposit lists about 17,000 reagents; shown is a random part of them. Over the whole deposit, 762 (4.5%) got an active call. 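Active calls include both raised and lowered p65 entry, mostly lowered; wells with fewer than 50 cells lack a z-score.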 Raw values are not corrected between plates. A number with no mark means an inactive call. No sequences are given here.

Screen: 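Find genes required for NF-kappaB p65 moving into the nucleus after LPS in mouse macrophages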 (primary screen)
Cell system: mouse RAW264.7 G9 macrophage reporter cells (GFP-p65, Tnf promoter-mCherry)
Reagents: siRNA pool against mouse genes, 100 nM
Time to read-out: 2 days siRNA transfection, then 40 min LPS before fixation
Treatment: LPS (Salmonella minnesota R595) at 10 ng/ml
Measured: 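Imaged p65 nuclear translocation ratio, normalised to the plate median, converted to robust z-scores and averaged across two replicates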
Reading the numbers: p65 translocation robust z-score: higher = more nuclear NF-kappaB p65 after LPS than the plate median; nuclear/cytoplasmic p65 ratio: higher = more nuclear NF-kappaB p65
Active means: 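Called active when z exceeds 3.3 or falls under -1.56 (median of Tlr4 controls), giving activity score of at least 50; no calls for control wells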
Calls: active = hit (p65 shift raised or lowered); inactive = no clear change

gene,p65 translocation robust z-score,"nuclear/cytoplasmic p65 ratio, rep 1","nuclear/cytoplasmic p65 ratio, rep 2",low cell count flag
Reep3 (receptor accessory protein 3),-1.13,1.4,1.61,enough cells to score
"Col12a1 (collagen, type XII, alpha 1)",0.2,1.5,1.4,enough cells to score
Or10p22 (olfactory receptor family 10 subfamily P member 22),0.66,1.46,1.35,enough cells to score
Stx8 (syntaxin 8),0.32,1.45,1.28,enough cells to score
Klk1b26 (kallikrein 1-related petidase b26),-0.87,1.2,1.52,enough cells to score
Asb13 (ankyrin repeat and SOCS box-containing 13),-0.41,1.58,1.41,enough cells to score
Or6c217 (olfactory receptor family 6 subfamily C member 217),,1.43,1.39,fewer than 50 cells per well; well left out of scoring
Hnrnpr (heterogeneous nuclear ribonucleoprotein R),0.26,1.77,1.5,enough cells to score
Pgbd5 (piggyBac transposable element derived 5),0.44,1.45,1.29,enough cells to score
Rpl8 (ribosomal protein L8),0.05,1.41,1.22,enough cells to score
Rnf113a1 (ring finger protein 113A1),,1.3,1.44,fewer than 50 cells per well; well left out of scoring
"Hba-x (hemoglobin X, alpha-like embryonic chain in Hba complex)",-0.6,1.37,1.28,enough cells to score
Trpm5,-0.2,1.47,1.49,enough cells to score
Nkiras2 (NFKB inhibitor interacting Ras-like protein 2),-0.1,1.56,1.29,enough cells to score
Sall1 (spalt like transcription factor 1),-0.52,1.27,1.61,enough cells to score
AU040320 (expressed sequence AU040320),0.29,1.62,1.58,enough cells to score
Vmn1r212 (vomeronasal 1 receptor 212),0.29,1.31,1.26,enough cells to score
Nup62 (nucleoporin 62),0.34,1.89,1.48,enough cells to score
1500015L24Rik (RIKEN cDNA 1500015L24 gene),,1.18,1.01,fewer than 50 cells per well; well left out of scoring
Srd5a2 (steroid 5 alpha-reductase 2),1.11,1.62,1.8,enough cells to score
Mgl2,0.11,1.74,1.56,enough cells to score
Ppbp (pro-platelet basic protein),-0.35,1.41,1.35,enough cells to score
Sgtb,0.93,1.45,1.43,enough cells to score
"Ralgapa1 (Ral GTPase activating protein, alpha subunit 1)",-0.03,1.62,1.43,enough cells to score
"Moxd1 (monooxygenase, DBH-like 1)",1.12,1.78,1.92,enough cells to score
"Pigv (phosphatidylinositol glycan anchor biosynthesis, class V)",0.98,1.64,1.76,enough cells to score
"Spdye4a (speedy/RINGO cell cycle regulator family, member E4A)",,1.13,1.18,fewer than 50 cells per well; well left out of scoring
Pank4 (pantothenate kinase 4),-1.13,1.37,1.23,enough cells to score
Slfn10 (schlafen 10),,1.48,1.16,fewer than 50 cells per well; well left out of scoring
Mill2 (MHC I like leukocyte 2),-0.19,1.43,1.31,enough cells to score
Gfra4,-0.73,1.4,1.22,enough cells to score
Lpin1 (lipin 1),,1.7,1.44,fewer than 50 cells per well; well left out of scoring
"Rab43 (RAB43, member RAS oncogene family)",,1.39,1.09,fewer than 50 cells per well; well left out of scoring
"Wipi1 (WD repeat domain, phosphoinositide interacting 1)",1.16,1.83,1.89,enough cells to score
Il33 (interleukin 33),1.4,1.52,1.85,enough cells to score
Cps1 (carbamoyl-phosphate synthetase 1),0.26,1.53,1.4,enough cells to score
Tigd4 (tigger transposable element derived 4),1.04,1.56,1.68,enough cells to score
Cox7a2 (cytochrome c oxidase subunit 7A2),0.43,1.53,1.97,enough cells to score
Aup1 (ancient ubiquitous protein 1),1.24,1.75,1.72,enough cells to score
Trpm7,0.09,1.67,1.42,enough cells to score
9130221H12Rik (RIKEN cDNA 9130221H12 gene),-1.62 (active),1.26,1.26,enough cells to score
Spaca7 (sperm acrosome associated 7),,1.53,1.88,fewer than 50 cells per well; well left out of scoring
Hdhd5 (haloacid dehalogenase like hydrolase domain containing 5),-0.94,1.56,1.51,enough cells to score
Prox2 (prospero homeobox 2),0.07,1.4,1.67,enough cells to score
Mrpl19 (mitochondrial ribosomal protein L19),-0.04,1.82,1.55,enough cells to score
Tdrd1 (tudor domain containing 1),-0.35,1.29,1.18,enough cells to score
Alx1 (ALX homeobox 1),-0.15,1.55,1.63,enough cells to score
Itgam (integrin alpha M),0.62,1.53,1.49,enough cells to score
Tmcc3 (transmembrane and coiled coil domains 3),0.78,1.64,1.99,enough cells to score
H2bc1 (H2B clustered histone 1),,1.63,1.51,fewer than 50 cells per well; well left out of scoring
Foxk1 (forkhead box K1),0.8,1.67,1.61,enough cells to score
Bbs4 (Bardet-Biedl syndrome 4),1.13,1.74,1.82,enough cells to score
Yae1d1 (Yae1 domain containing 1),0.83,1.78,1.45,enough cells to score
Lipk (lipase family member K),,1.64,1.78,fewer than 50 cells per well; well left out of scoring
Or4b1d (olfactory receptor family 4 subfamily B member 1D),,1.99,1.36,fewer than 50 cells per well; well left out of scoring
Ints15 (integrator complex subunit 15),0.9,1.65,1.42,enough cells to score
Phgr1 (proline/histidine/glycine-rich 1),,1.35,1.73,fewer than 50 cells per well; well left out of scoring
Gpcpd1 (glycerophosphocholine phosphodiesterase 1),-2 (active),1.11,1.07,enough cells to score
1700029H14Rik (RIKEN cDNA 1700029H14 gene),,1.28,1.45,fewer than 50 cells per well; well left out of scoring
"Eva1a (eva-1 homolog A, regulator of programmed cell death)",-1.18,1.28,1.79,enough cells to score
Oas2 (2'-5' oligoadenylate synthetase 2),0.15,1.53,1.38,enough cells to score
H2bc8 (H2B clustered histone 8),,0,1.59,fewer than 50 cells per well; well left out of scoring
Wfdc21 (WAP four-disulfide core domain 21),0.11,1.48,1.54,enough cells to score
Rps23 (ribosomal protein S23),,1.2,1.05,fewer than 50 cells per well; well left out of scoring
Blnk (B cell linker),-0.58,1.56,1.34,enough cells to score
Cts3 (cathepsin 3),-0.47,1.53,1.69,enough cells to score
Mfn2 (mitofusin 2),-1.41,1.55,1.3,enough cells to score
Hivep1,1.9,1.62,1.68,enough cells to score
"Ms4a6c (membrane-spanning 4-domains, subfamily A, member 6C)",2.92,1.95,2.3,enough cells to score
Fastk (Fas-activated serine/threonine kinase),-0.06,1.77,1.38,enough cells to score
"Brca2 (breast cancer 2, early onset)",-0.18,1.63,1.54,enough cells to score
Mmp2 (matrix metallopeptidase 2),-0.8,1.16,1.25,enough cells to score
Sh2b2 (SH2B adaptor protein 2),-1.05,1.5,1.42,enough cells to score
Ints8 (integrator complex subunit 8),1.09,1.57,1.58,enough cells to score
Cct7 (chaperonin containing TCP1 subunit 7),0.18,1.64,1.4,enough cells to score
